Data reported in patent publication US20180037657A1 (AGENSYS, published 2018).
No constants are given. Whether binding was seen depends on the method and setting. Some results given as binding are weak or reduced against the parent protein; the word gives no strength.

The chains behind the UniProt entries cited, without tags or fusion partners. Where a name states a change or a piece, a line headed by the entry shows the natural chain unless it says otherwise.
UniProt P36888: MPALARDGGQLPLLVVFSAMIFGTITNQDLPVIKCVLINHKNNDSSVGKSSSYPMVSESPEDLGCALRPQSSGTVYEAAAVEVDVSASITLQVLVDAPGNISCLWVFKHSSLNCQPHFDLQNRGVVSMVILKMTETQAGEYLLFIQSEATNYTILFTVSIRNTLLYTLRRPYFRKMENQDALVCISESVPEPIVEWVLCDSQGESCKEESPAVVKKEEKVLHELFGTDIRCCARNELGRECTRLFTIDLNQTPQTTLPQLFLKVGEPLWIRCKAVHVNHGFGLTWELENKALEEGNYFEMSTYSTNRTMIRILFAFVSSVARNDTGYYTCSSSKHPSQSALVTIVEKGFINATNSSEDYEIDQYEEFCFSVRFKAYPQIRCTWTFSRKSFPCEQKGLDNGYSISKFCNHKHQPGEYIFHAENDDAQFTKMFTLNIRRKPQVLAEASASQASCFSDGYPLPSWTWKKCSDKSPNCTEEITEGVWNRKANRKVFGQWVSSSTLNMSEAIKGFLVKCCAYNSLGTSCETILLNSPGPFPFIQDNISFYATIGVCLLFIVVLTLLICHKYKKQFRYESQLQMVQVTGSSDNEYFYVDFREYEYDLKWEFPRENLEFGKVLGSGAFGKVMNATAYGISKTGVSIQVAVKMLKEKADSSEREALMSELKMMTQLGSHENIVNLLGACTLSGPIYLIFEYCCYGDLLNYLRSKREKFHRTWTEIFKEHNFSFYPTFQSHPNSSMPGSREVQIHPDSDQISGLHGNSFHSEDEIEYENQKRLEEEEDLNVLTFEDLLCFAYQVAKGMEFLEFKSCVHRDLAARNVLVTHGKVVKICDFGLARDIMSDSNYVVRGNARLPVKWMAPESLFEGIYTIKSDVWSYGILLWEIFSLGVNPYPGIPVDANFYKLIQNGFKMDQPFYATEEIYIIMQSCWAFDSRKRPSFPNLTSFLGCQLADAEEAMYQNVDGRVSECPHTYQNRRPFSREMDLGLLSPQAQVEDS

Biological target: FLT3 on the cell surface (human leukemia cell lines and patient cells) (human) (UniProt P36888)
Test: flow cytometry on MOLM-13 cells, biotinylated antibody at 10 ug/ml and Streptavidin-PE, after 30 min pre-incubation with human FLT3 ligand

B1: v62-1b37.1 (antibody, human IgG1, kappa, V domains shown)
VH: EVQLVESGGGVVRPGGSLRLSCAASGFTFDDYGMSWVRQAPGKGLEWVSGINWNGGSTGYADSVKGRFTISRDDAKNSLYLQMNSLRAEDTALYHCARDGYTYGPFDNWGQGTLVTVSS
VL: DIQMTQSPSSLSASVGDRVTITCRASQGIRNDLGWYQQKPGKAPKRLIYAASSLQSGVPSRFSGSGSGTEFTLTISSLQPEDFATYYCLQHNSYPYTFGQGTKLEIKR
Question: With B1 as the binder, how does the binding read?
Answer: binds
